The list is a part of this screen's results and no random one: it covers a few groups of compounds. Not every dose and run of a compound is shown. T/C: endpoint of the treated group in % of that of the vehicle group. Some doses have a count of surviving animals in place of a T/C: the source holds a T/C of zero for them, seemingly a mark for toxic or unscored doses. Some doses without a T/C left all or most animals alive at the check, yet need not have been tolerated: the source hardly ever lists a survival T/C far under the control, and the zero likely stands for such cases as well. Survivors were counted at the toxicity check, usually on the fifth day, unless a day is given; later deaths do not show. Schedule codes are those of the source, read here as Q, the interval in days (D) or hours (H), X, the number of doses. For survival time, the PubChem record calls one and a half times the control and up active, and a quarter to a half above the control has no call in these data; cut-offs in other NCI protocols can differ. Some entries were tested several times; their values stand side by side, smallest first.
Test system: B16 melanoma ip, C57BL/6 mice, median survival T/C
Assay: NCI In Vivo Anticancer Drug Screen. Data for tumor model B16 Melanoma (intraperitoneal) in C57BL/6 mice
Settings: T/C endpoint: median survival time, schedule: Q01DX009 (ip), vehicle: saline, higher T/C = longer survival
Procedure: The antitumor activity of compounds was measured in mice bearing transplantable tumors. Survival or tumor size were measured and the results are expressed as the measurement made in the treated group (T) divided by the measurement made in the vehicle treated control group (C). The tumor model used in this assay is B16 Melanoma (intraperitoneal) in C57BL/6 mice

NC(=O)c1[nH]cnc1/N=N\N(CCCl)CCCl
T/C (dose: 50.0 mg/kg/injection): 140 and 176 % of control
T/C (dose: 100.0 mg/kg/injection): 123 and 170 % of control
T/C (dose: 200.0 mg/kg/injection): 90 and 103 % of control
T/C (dose: 400.0 mg/kg/injection): 86 % of control
survivor count (dose: 400.0 mg/kg/injection): 10 of 10

Source: PubChem BioAssay AID198 (DTP/NCI, 2004)
